By Papp A→B is commonly meant the apparent permeability from the apical to the basolateral side of a cell layer. Lower therefore signals slow passage.

The source of these data is paper PMC4607679, “Intestinal Absorption of Ergostane and Lanostane Triterpenoids from Antrodia cinnamomea Using Caco-2 Cell Monolayer Model” (Natural Products and Bioprospecting, 2015).

The nature of series [1]: in vitro. The conditions noted are these: human, Caco-2.
A short description of series [2]: Bidirectional transport across the Caco-2 cell monolayer (LC/MS/MS). As to conditions: human, Caco-2.
Series [3] concerns Caco-2 cell monolayer. The description is as above. The conditions noted are these: marker compound, AP to BL (Table S5).

As to `CC(C)NCC(O)COc1ccc(CC(N)=O)cc1` (centres unmarked) [atenolol, reference compound], the Papp A→B at 90 min in series [1] came to 0.796 ± 0.104 ×10⁻⁶ cm/s. Also, in series [2], the Papp A→B at 30 min stood at 0.71 ± 0.14 ×10⁻⁶ cm/s, the Papp A→B at 60 min was 0.736 ± 0.152 ×10⁻⁶ cm/s and the Papp A→B at 120 min was determined as 0.776 ± 0.465 ×10⁻⁶ cm/s. The “PAB value of marker compound” value in series [3] is on record as 7.76 ± 4.65 × 10^−7 cm/s.
